Laboratory results: article PMC6727020
These are yes or no findings as the source states them, for the method shown. Binding seen in cells or lysates may run through a third protein. Some entries that bind do so weakly or less than the wild type.

By UniProt entry, the sequences of proteins in these tests, tags left out.
UniProt Q8R4B8: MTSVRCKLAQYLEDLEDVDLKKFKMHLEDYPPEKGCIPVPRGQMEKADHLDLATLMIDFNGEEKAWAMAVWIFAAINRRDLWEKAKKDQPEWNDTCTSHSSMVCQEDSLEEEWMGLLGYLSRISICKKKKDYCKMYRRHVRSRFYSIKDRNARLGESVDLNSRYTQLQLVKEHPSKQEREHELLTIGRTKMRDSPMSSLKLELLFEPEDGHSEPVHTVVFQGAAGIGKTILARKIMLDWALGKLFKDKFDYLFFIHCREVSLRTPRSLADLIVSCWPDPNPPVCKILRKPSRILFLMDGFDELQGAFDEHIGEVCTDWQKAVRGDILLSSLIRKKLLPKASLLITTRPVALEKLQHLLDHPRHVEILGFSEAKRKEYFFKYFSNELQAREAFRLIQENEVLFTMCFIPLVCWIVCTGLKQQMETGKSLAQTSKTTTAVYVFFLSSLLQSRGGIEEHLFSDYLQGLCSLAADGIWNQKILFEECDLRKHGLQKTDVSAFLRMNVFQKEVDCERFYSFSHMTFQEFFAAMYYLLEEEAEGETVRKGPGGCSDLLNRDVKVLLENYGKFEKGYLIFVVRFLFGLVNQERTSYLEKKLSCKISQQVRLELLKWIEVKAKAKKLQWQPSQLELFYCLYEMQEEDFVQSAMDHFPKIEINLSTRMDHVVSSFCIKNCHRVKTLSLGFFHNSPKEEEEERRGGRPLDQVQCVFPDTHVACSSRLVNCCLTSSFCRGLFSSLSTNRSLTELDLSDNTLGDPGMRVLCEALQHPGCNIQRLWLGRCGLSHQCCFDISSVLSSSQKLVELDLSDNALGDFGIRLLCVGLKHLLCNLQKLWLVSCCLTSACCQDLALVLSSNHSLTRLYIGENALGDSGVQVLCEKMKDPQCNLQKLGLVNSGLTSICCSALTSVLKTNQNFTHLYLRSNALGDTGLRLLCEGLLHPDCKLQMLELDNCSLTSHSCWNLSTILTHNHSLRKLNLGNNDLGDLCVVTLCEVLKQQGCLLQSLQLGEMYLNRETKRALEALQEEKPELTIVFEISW

Experiments:
[1] = molecular target: nucleotide-binding oligomerization domain, leucine-rich repeat and pyrin domain-containing 3 (mouse (endogenous in primary cortical neurons of C57BL/6 mice)) (UniProt Q8R4B8); assay: co-IP; as a1, but neurons treated with LPS alone (10 ng/ml, 4 h), no ATP
[2] = molecular target: nucleotide-binding oligomerization domain, leucine-rich repeat and pyrin domain-containing 3 (mouse (endogenous in primary cortical neurons of C57BL/6 mice)) (UniProt Q8R4B8); assay: co-IP; endogenous proteins of primary cortical neurons (NC-shRNA or NEK7-shRNA) stimulated with LPS + ATP or K+-free medium; Pierce IP lysis buffer; anti-NEK7 or anti-NLRP3 antibody coupled to Dynabeads, IgG as negative control, overnight at 4°C; Western blot

B1: pro-caspase-1 (enzyme, UniProt P29452 1-402)
chain: MADKILRAKRKQFINSVSIGTINGLLDELLEKRVLNQEEMDKIKLANITAMDKARDLCDHVSKKGPQASQIFITYICNEDCYLAGILELQSAPSAETFVATEDSKGGHPSSSETKEEQNKEDGTFPGLTGTLKFCPLEKAQKLWKENPSEIYPIMNTTTRTRLALIICNTEFQHLSPRVGAQVDLREMKLLLEDLGYTVKVKENLTALEMVKEVKEFAACPEHKTSDSTFLVFMSHGIQEGICGTTYSNEVSDILKVDTIFQMMNTLKCPSLKDKPKVIIIQACRGEKQGVVLLKDSVRDSEEDFLTDAIFEDDGIKKAHIEKDFIAFCSSTPDNVSWRHPVRGSLFIESLIKHMKEYAWSCDLEDIFRKVRFSFEQPEFRLQMPTADRVTLTKRFYLFPGH
With B1 as the binder, how does the binding [1] read?
Its binding is “binds weakly”.

And the binding [2]?
Its binding is “binds”.
